## Library screen at single concentrations

The values are deposited in ChEMBL (CHEMBL3988442, “University of Dundee, Small-Polar-MMV Screening Library” (2021)).

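Whole-cell growth test on Mycobacterium tuberculosis, read after 3 days in glucose-containing 7H9 medium; the read-out is not stated. Concentration: 500 µM. Direction is inferred from retests: higher values go with more growth inhibition. Size under these conditions: about 18,000 compounds, about 1,400 of them at 50% or above in at least one test.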

The filed quantity is “Percent Effect” (%).
The record does not define 0% and 100%; most values in the screen are far below 50% and negative numbers occur (in some assays of this library far below -100).
This is an unselected part of the compounds tested.

SMILES | percent effect
CN(Cc1cn(-c2ccc(Cl)c(Cl)c2)nn1)S(C)(=O)=O | 3.694%
Clc1ccnc(N2CCCC2)c1 | 9.506%
CCCn1ccc(NC(=O)NC(C)C)n1 | 49.57%
CC(C)N(CCS(=O)(=O)c1ccccc1)CC(N)=O | 52.09%
COc1ccc(CCC(=O)N2CCNCC2)cc1 | -5.735%
CCCc1nccn1CCN1CCCS1(=O)=O | 5.485%
CCC(C)(O)CNC(=O)CCOC(C)C (centres unmarked) | 7.646%
NC(=O)CCSc1nc2ncccn2n1 | 17.24%
O=C(Nc1nc2ccccc2[nH]1)C1CC1 | -0.3164%
CN(CC(=O)N1CCNC1=O)CC1CCCCC1 | -5.986%
CC(C(N)=O)N1CCC(C(=O)NC2CCCCC2)CC1 (centres unmarked) | 10.23%
CC1(C)CN(C(=O)NC2CCN(C3CC3)CC2)CCO1 | 8.297%
O=C(NCCc1cccs1)C1CCNCC1 | 44.94%
O=S1(=O)CC[C@H]2CNC[C@H]21 | 0.9147%
CC(C)(C)OC(=O)NCCC(=O)NCC1CCCCN1 (centres unmarked) | 6.228%
Cc1ccccc1C(=O)NC1CCN(CCCO)CC1 | -8.04%
COCC(=O)N(C)C1CCCCC1 | -2.305%
O=C(NCCO)NCc1ccncc1OCC(F)(F)F | 0.6981%
CCC(C)N(C)CCNC(=O)NC1CC1 (centres unmarked) | -7.542%
COc1cccc(OCCN)c1 | 9.725%
Cc1cc(C)n(CCC(=O)NC2C=CS(=O)(=O)C2)n1 (centres unmarked) | 2.503%
CCN(CCCS(=O)(=O)NC)c1cccc(CO)c1 | 4.44%
c1ccc(C/N=C2/CCCCCN2)nc1 | 14.65%
O=C(CN1CCNCC1)c1ccco1 | 43.21%
CCOC1CC(CN)(N2CCOCC2)C1 (centres unmarked) | -1.448%
OCc1c(Cl)ccc2cccnc12 | -15.39%
Cn1ccnc1CCNC(=O)CCN1CCCCC1=O | -4.319%
CCC(C)NC(=O)CCN1C(=O)CCC1=O (centres unmarked) | 4.333%
CS(=O)(=O)NCC1CCCN(Cc2cccnc2N)C1 (centres unmarked) | 8.474%
COc1ccc(-c2nnn(CCO)n2)cc1OC | 22.89%
COC[C@@H]1CCCN1Cc1cc(OC)ccn1 | 22.43%
CNC(=O)[C@H](C)NC(=O)OC(C)(C)C | 10.12%
N#Cc1ccc(OCCN2CCCS2(=O)=O)cc1 | 2.883%
OCCC1(NCc2ccc3c(c2)CCO3)CCOCC1 | 11.11%
CCC(C)C(=O)N1CCN(C(=O)c2ccoc2C)CC1 (centres unmarked) | 11.52%
N[C@@H]1CC[C@@H](NC(=O)c2cc3sccc3[nH]2)C1 | 53.4%
O=C(Nc1ccncc1)c1coc(Br)c1 | 39.45%
CN(c1ccccc1C(N)=O)S(=O)(=O)c1cccs1 | 6.551%
CCN(Cc1ccco1)C(=O)c1cc(C(C)=O)c[nH]1 | 32.8%
Cc1cccc(NC(=O)C2COCCO2)c1 (centres unmarked) | 35.47%
COC(C)(C)C(=O)CSc1cc(C#N)ccn1 | 7.339%
O=C1Nc2ccccc2C12CCNC2 (centres unmarked) | -5.134%
Cc1ccc2nc(C(=O)N[C@@H]3CCCNC3)c(F)n2c1 | 49.31%
COCC(=O)Nc1ccc(C(=O)c2nccn2C)cc1 | 49.47%
CC(=O)Nc1ccc(C(=O)OC2CCCCC2=O)s1 (centres unmarked) | 40.34%
Cc1noc(C(C)N2CCn3c(nc(C)c3C)C2)n1 (centres unmarked) | -20.66%
CC(C#N)N1CCC(CNS(C)(=O)=O)CC1 (centres unmarked) | 4.528%
NCc1cccc(-c2nccs2)c1 | 28.22%
COc1ccc(N2CCNCC2)cc1F | 41.03%
CCc1nnc(SCC(N)=O)o1 | 5.577%
O=C1CCC(=O)N1Cc1cc(F)cc2cccnc12 | 0.9547%
COC(=O)c1cc(F)ccc1CN(C)S(C)(=O)=O | 33.52%
NC1(CO)CCc2ccccc21 (centres unmarked) | 13.74%
Cc1nc(C)c(C(=O)N(C)c2ccc3c(c2)OCO3)o1 | -2.516%
CN1CC=C(CCN)CC1 | -1.44%
CC(C)c1nnc2ccc(Cl)nn12 | 16.11%
Nc1ccc(C(=O)N2C[C@@H]3CCC[C@H](C2)C(=O)N3)cn1 | 4.143%
CCOc1ccc(C(=O)N(C)C(C)c2ccncn2)o1 (centres unmarked) | 21.43%
CCOc1ccc(C(=O)N(C)Cc2cnn(C)c2)cn1 | 21.2%
CCC(C)Oc1cc(C(=O)NCc2ncc[nH]2)ccn1 (centres unmarked) | 1.126%
CC[C@H](N)C(=O)N1CCN(C2CC2)C(=O)C1 | -8.016%
COCc1cccc(S(=O)(=O)N2CCOCC2)c1 | -6.099%
Cc1cc(NCCO)nc2ccccc12 | 23.15%
CCSCCOc1ccc(CO)nc1 | 55.65%
Cn1nc(-c2cc(F)cc(F)c2)cc1N | 32.73%
NC(=O)CN1CCN(c2cccc(Cl)c2)CC1 | 34.03%
Cc1ncn(CC(=O)N2CCN3CCCC3C2)c1C (centres unmarked) | -8.579%

For reference, 6 entries once more:

Result for NCc1cccc(-c2nccs2)c1 was 28.22%.
Result for COC(=O)c1cc(F)ccc1CN(C)S(C)(=O)=O was 33.52%.
Result for CCN(Cc1ccco1)C(=O)c1cc(C(C)=O)c[nH]1 was 32.8%.
Result for OCc1c(Cl)ccc2cccnc12 was -15.39%.
Result for O=C(Nc1nc2ccccc2[nH]1)C1CC1 was -0.3164%.
Result for CCC(C)C(=O)N1CCN(C(=O)c2ccoc2C)CC1 (centres unmarked) was 11.52%.